In test [1] the target is PCSK9 (UniProt Q8NBP7). Briefly: ELISA, PCSK9 coated as capture reagent, anti-human IgG HRP detection. (In general: An ELISA detects its analyte on a solid surface through an enzyme-linked reagent.)
The target in test [2] is PCSK9 (UniProt Q8NBP7). The experiment in a line: potency assay by binding to PCSK9 (FIG. 4).

The chains behind the UniProt entries cited, without tags or fusion partners. Residues count along the entry.
UniProt Q8NBP7, residues 31-692: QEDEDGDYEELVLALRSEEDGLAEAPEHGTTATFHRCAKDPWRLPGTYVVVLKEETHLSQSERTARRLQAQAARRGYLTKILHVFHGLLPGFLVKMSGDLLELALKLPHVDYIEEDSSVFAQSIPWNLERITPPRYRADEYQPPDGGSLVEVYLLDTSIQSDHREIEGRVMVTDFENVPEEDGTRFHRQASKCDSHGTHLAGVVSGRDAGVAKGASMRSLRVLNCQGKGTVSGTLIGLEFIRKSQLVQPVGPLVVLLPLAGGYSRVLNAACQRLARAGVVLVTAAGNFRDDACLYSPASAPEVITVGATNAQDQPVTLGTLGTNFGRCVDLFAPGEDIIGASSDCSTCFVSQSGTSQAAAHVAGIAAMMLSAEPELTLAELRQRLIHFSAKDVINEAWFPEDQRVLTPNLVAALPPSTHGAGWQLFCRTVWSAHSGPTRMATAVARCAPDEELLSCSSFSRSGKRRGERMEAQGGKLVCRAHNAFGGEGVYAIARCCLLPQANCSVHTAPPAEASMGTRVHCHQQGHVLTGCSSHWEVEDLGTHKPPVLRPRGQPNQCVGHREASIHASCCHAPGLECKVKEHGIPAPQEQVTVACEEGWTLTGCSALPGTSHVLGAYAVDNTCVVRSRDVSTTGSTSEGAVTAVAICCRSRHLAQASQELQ

Where a chain is given by its changes, count along the chain named. Names may count otherwise. No constants are given. Whether binding was seen depends on the method and setting. Some entries that bind do so weakly or less than the wild type.

B1: AK (82 94 95) mutant (antibody)
heavy: EVQLVQSGAEVKKPGASVKVSCKASGYTLTSYGISWVRQAPGQGLEWMGWVSFYNGNTNYAQKLQGRGTMTRDPSTSTAYMELSRLRSDDTAVYYCARGYGMDVWGQGTTVTVSSASTKGPSVFPLAPCSRSTSESTAALGCLVKDYFPEPVTVSWNSGALTSGVHTFPAVLQSSGLYSLSSVVTVPSSNFGTQTYTCNVDHKPSNTKVDKTVERKCCVECPPCPAPPVAGPSVFLFPPKPKDTLMISRTPEVTCVVVDVSHEDPEVQFNWYVDGVEVHNAKTKPREEQFNSTFRVVSVLTVVHQDWLNGKEYKCKVSNKGLPAPIEKTISKTKGQPREPQVYTLPPSREEMTKNQVSLTCLVKGFYPSDIAVEWESNGQPENNYKTTPPMLDSDGSFFLYSKLTVDKSRWQQGNVFSCSVMHEALHNHYTQKSLSLSPGK
light: ESALTQPASVSGSPGQSITISCTGTSSDVGGYNSVSWYQQHPGKAPKLMIYEVSNRPSGVSNRFSGSKSGNTASLTISGLQAEDEADYYCNSYTSTSMVFGGGTKLTVLGQPKAAPSVTLFPPSSEELQANKATLVCLISDFYPGAVTVAWKADSSPVKAGVETTTPSKQSNNKYAASSYLSLTPEQWKSHRSYSCQVTHEGSTVEKTVAPTECS
For the molecule B1, the binding result in test [1] and in test [2] was “binds” throughout.

B2: AK Fab/S440K double mutant (antibody)
heavy: B1 heavy with S434K
light: B1 light
Take B2: in test [1], the binding result was “binds”.
